Source: paper PMC3528735
These are yes or no findings as the source states them, for the method shown. For part of these data: Binding seen in cells or lysates may run through a third protein. Some binding calls cover weakened binding; strength is not graded here.

The chains behind the UniProt entries cited, without tags or fusion partners. Where a name states a change or a piece, a line headed by the entry shows the natural chain unless it says otherwise. A line that says so, or that is headed by a name, gives the form on record, which may keep a tag or linker. Residues count along the entry.
mouse PAC1 (Normal/Hop) isoform, intact PAC1 (P70205, residues 21-496): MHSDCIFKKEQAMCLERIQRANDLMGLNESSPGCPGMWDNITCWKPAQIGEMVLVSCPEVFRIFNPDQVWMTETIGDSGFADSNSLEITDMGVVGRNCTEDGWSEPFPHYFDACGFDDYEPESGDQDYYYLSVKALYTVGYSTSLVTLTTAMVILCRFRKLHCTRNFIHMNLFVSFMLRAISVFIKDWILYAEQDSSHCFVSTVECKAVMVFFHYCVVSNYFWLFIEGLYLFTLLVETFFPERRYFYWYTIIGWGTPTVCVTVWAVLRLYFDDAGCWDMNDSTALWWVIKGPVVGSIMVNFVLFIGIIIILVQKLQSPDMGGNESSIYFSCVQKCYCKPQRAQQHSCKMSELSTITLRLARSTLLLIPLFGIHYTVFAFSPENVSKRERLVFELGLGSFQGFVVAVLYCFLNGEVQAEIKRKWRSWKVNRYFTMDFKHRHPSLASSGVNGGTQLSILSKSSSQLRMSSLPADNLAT
D-PAC1, mutant PAC1 with the deletion of the HSDCIF motif (P70205, form named): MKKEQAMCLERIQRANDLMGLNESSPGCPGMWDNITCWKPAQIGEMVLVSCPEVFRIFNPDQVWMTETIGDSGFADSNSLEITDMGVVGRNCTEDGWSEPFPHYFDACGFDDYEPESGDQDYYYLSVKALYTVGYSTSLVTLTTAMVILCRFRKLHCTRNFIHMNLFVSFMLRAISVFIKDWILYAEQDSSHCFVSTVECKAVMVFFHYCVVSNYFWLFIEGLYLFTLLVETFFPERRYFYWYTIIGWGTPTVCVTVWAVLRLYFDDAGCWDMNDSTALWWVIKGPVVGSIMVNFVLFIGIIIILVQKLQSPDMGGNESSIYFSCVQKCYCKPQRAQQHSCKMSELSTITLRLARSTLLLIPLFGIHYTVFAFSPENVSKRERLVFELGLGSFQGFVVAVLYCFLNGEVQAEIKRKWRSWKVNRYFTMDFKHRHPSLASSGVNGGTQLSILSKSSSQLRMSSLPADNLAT
M-PAC1, mutant PAC1 with the replacement of Cys in the HSDCIF motif with Ala (P70205, form named): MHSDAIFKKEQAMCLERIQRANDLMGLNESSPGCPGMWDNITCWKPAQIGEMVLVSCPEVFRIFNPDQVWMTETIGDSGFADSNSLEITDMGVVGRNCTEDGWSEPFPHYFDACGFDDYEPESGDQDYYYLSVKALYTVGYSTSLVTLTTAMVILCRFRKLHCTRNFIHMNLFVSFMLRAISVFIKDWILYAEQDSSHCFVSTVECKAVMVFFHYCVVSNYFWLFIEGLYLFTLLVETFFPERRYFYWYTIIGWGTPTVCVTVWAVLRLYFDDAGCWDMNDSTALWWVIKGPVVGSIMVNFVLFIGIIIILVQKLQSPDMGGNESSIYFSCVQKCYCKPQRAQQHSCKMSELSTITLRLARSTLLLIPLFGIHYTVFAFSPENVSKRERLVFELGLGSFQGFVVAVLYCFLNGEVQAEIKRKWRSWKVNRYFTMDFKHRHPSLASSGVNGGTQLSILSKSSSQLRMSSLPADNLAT

Key:
[1] = molecular target: D-PAC1, mutant PAC1 with the deletion of the HSDCIF motif (mouse) (UniProt P70205); assay: non-reducing SDS-PAGE and western blot; cell membrane samples and cell lysates of CHO cells expressing YFP-tagged receptor, loading buffer without reducing agent, boiled, blot with anti-PAC1 antibody; dimer band about 160 kD; one sample from cells incubated with 100 nmol/L HSDCIF for 2 h at 4°C
[2] = molecular target: mouse PAC1 (Normal/Hop) isoform, intact PAC1 (mouse) (UniProt P70205); assay: split reporter; CHO cells co-transfected with equal amounts of Y/N- and Y/C-tagged receptor constructs, read 48 h later by fluorescence microscopy and in a plate counter (ex 480, em 535 nm); some samples incubated with 100 nmol/L HSDCIF for 2 h at 4°C before reading
[3] = molecular target: D-PAC1, mutant PAC1 with the deletion of the HSDCIF motif (mouse) (UniProt P70205); assay: as above
[4] = molecular target: mouse PAC1 (Normal/Hop) isoform, intact PAC1 (mouse) (UniProt P70205); assay: FRET or BRET; static BRET in CHO cells, Rlu-tagged and YFP-tagged receptor constructs, 1.0 ug DNA/5x10^5 cells divided equally, coelenterazine h 5 uM, 48 h after transfection; some samples incubated with 100 nmol/L HSDCIF for 2 h at 4°C before reading
[5] = molecular target: D-PAC1, mutant PAC1 with the deletion of the HSDCIF motif (mouse) (UniProt P70205); assay: as above
[6] = molecular target: mouse PAC1 (Normal/Hop) isoform, intact PAC1 (mouse) (UniProt P70205); assay: FRET or BRET; saturation BRET in CHO cells, constant Rlu-tagged donor (1.0 ug DNA/5x10^5 cells) and increasing YFP-tagged acceptor (0.3 to 6.0 ug); some samples incubated with 100 nmol/L HSDCIF for 2 h at 4°C before reading
[7] = molecular target: D-PAC1, mutant PAC1 with the deletion of the HSDCIF motif (mouse) (UniProt P70205); assay: as above
[8] = molecular target: M-PAC1, mutant PAC1 with the replacement of Cys in the HSDCIF motif with Ala (mouse) (UniProt P70205); assay: non-reducing SDS-PAGE and western blot; cell membrane samples and cell lysates of CHO cells expressing YFP-tagged receptor, loading buffer without reducing agent, boiled, blot with anti-PAC1 antibody; dimer band about 160 kD; one sample from cells incubated with 100 nmol/L HSDCIF for 2 h at 4°C
[9] = molecular target: M-PAC1, mutant PAC1 with the replacement of Cys in the HSDCIF motif with Ala (mouse) (UniProt P70205); assay: split reporter; CHO cells co-transfected with equal amounts of Y/N- and Y/C-tagged receptor constructs, read 48 h later by fluorescence microscopy and in a plate counter (ex 480, em 535 nm); some samples incubated with 100 nmol/L HSDCIF for 2 h at 4°C before reading
[10] = molecular target: M-PAC1, mutant PAC1 with the replacement of Cys in the HSDCIF motif with Ala (mouse) (UniProt P70205); assay: FRET or BRET; static BRET in CHO cells, Rlu-tagged and YFP-tagged receptor constructs, 1.0 ug DNA/5x10^5 cells divided equally, coelenterazine h 5 uM, 48 h after transfection; some samples incubated with 100 nmol/L HSDCIF for 2 h at 4°C before reading
[11] = molecular target: M-PAC1, mutant PAC1 with the replacement of Cys in the HSDCIF motif with Ala (mouse) (UniProt P70205); assay: FRET or BRET; saturation BRET in CHO cells, constant Rlu-tagged donor (1.0 ug DNA/5x10^5 cells) and increasing YFP-tagged acceptor (0.3 to 6.0 ug); some samples incubated with 100 nmol/L HSDCIF for 2 h at 4°C before reading
[12] = molecular target: mouse PAC1 (Normal/Hop) isoform, intact PAC1 (mouse) (UniProt P70205); assay: non-reducing SDS-PAGE and western blot; cell membrane samples and cell lysates of CHO cells expressing YFP-tagged receptor, loading buffer without reducing agent, boiled, blot with anti-PAC1 antibody; dimer band about 160 kD; one sample from cells incubated with 100 nmol/L HSDCIF for 2 h at 4°C

Substance: D-PAC1, mutant PAC1 with the deletion of the HSDCIF motif (from UniProt P70205 21-496) (receptor)
- binding [1]: no binding
- binding [2]: no binding
- binding [3]: no binding
- binding [4]: no binding
- binding [5]: no binding
- binding [6]: no binding
- binding [7]: no binding

Substance: M-PAC1, mutant PAC1 with the replacement of Cys in the HSDCIF motif with Ala (from UniProt P70205 21-496) (receptor)
- binding [8]: no binding
- binding [9]: no binding
- binding [2]: no binding
- binding [10]: no binding
- binding [4]: no binding
- binding [11]: no binding
- binding [6]: no binding

Substance: mouse PAC1 (Normal/Hop) isoform, intact PAC1 (from UniProt P70205 21-496) (receptor)
- binding [12]: binds
- binding [2]: binds
- binding [4]: binds
- binding [6]: binds
